Data reported in PubChem BioAssay AID330 (DTP/NCI, 2004).
The list shows only some results of the screen, not a fair sample: it gathers tests that were run many times, whatever their T/C, doses with no T/C, and many T/C values between a quarter and a half above the control. Other doses and runs of a compound stand elsewhere. T/C gives the treated animals as a percentage of the vehicle group. Some entries give survivors of the animals treated and no T/C: the source files T/C as zero there, which appears to mark a toxic dose or a test without result, not a measured value. Some survivor counts are full or nearly so, which does not show that the dose was tolerated: survival well below the control is almost never listed, so the zero probably covers shortened survival too. Survivors were counted at the toxicity check, usually on the fifth day, unless a day is given; later deaths do not show. Schedule codes are those of the source, read here as Q, the interval in days (D) or hours (H), X, the number of doses. Some entries hold several experiments; their values stand side by side, smallest first. Some schedule codes hold Z or #, which are not explained here. For survival time, the PubChem record calls one and a half times the control and up active, and a quarter to a half above the control has no call in these data; cut-offs in other NCI protocols can differ. Some T/C values carry the count of animals alive at the toxicity check (mostly the fifth day); where none is given, no animal had died by that day.

Test system: P388 leukemia ip, CD2F1 mice, survival T/C
Test: NCI In Vivo Anticancer Drug Screen. Data for tumor model P388 Leukemia (intraperitoneal) in CD2F1 (CDF1) mice
Details: T/C endpoint: median survival time, higher T/C = longer survival
[1] = dose: 400.0 mg/kg/injection, schedule: Q04DX003 (ip), vehicle: saline with Tween-80
[2] = dose: 200.0 mg/kg/injection, schedule: Q01DX009 (ip), vehicle: saline with Tween-80
[3] = dose: 200.0 mg/kg/injection, schedule: Q01DX005 (ip), vehicle: Klucel (hydroxypropylcellulose) (HPC)
[4] = dose: 6.25 mg/kg/injection, schedule: Q01DX009 (ip), vehicle: Klucel (hydroxypropylcellulose) (HPC)
[5] = dose: 12.5 mg/kg/injection, schedule: Q01DX009 (ip), vehicle: Klucel (hydroxypropylcellulose) (HPC)
[6] = dose: 25.0 mg/kg/injection, schedule: Q01DX009 (ip), vehicle: Klucel (hydroxypropylcellulose) (HPC)
[7] = dose: 100.0 mg/kg/injection, schedule: Q01DX009 (ip), vehicle: saline
[8] = dose: 240.0 mg/kg/injection, schedule: Q01DX005 (ip), vehicle: saline with Tween-80
[9] = dose: 200.0 mg/kg/injection, schedule: Q04DX003 (ip), vehicle: Klucel (hydroxypropylcellulose) (HPC)

C=C(C)C1CC=C(CCCC(C)COC2OCC(OC(=O)/C(C)=C/CCC3=CCC(C(=C)C)CC3O)C(O)C2O)CC1 (stereo not given)
survivor count (dose: 86.0 mg/kg/injection, schedule: Q01DX005 (ip), vehicle: Klucel (hydroxypropylcellulose) (HPC)): 0 of 6

CC1(C)N=C(N)N=C(N)N1c1ccc(OCCOc2ccc(S(=O)(=O)F)cc2)c(Cl)c1
survivor count (dose: 200.0 mg/kg/injection, schedule: Q04DX003 (ip), vehicle: saline with Tween-80): 5 of 6 | survivor count (dose: 300.0 mg/kg/injection, schedule: Q04DX003 (ip), vehicle: saline with Tween-80): 1 of 6 | survivor count [1]: 6 of 6

C=C1C(=O)OC2(C)C3CCC(C3)C12 (stereo not given)
survivor count (dose: 200.0 mg/kg/injection, schedule: Q01DX009 (ip), vehicle: saline): 0 of 6

Nc1ccc2c(n1)NCC/C2=N\Nc1ccc(F)cc1
survivor count [2]: 3 of 6

COc1cc(CCCOC2OC(COC3OCC(O)C(O)C3O)C(O)C(O)C2O)cc2cc(-c3ccc4c(c3)OCO4)oc12 (stereo not given)
survivor count (dose: 37.5 mg/kg/injection, schedule: Q01DX005 (ip), vehicle: Klucel (hydroxypropylcellulose) (HPC)): 5 of 6 | survivor count (dose: 75.0 mg/kg/injection, schedule: Q01DX005 (ip), vehicle: Klucel (hydroxypropylcellulose) (HPC)): 6 of 6 | survivor count (dose: 150.0 mg/kg/injection, schedule: Q01DX005 (ip), vehicle: Klucel (hydroxypropylcellulose) (HPC)): 6 of 6

c1cc(-c2[nH]c3cc(C4=NCCN4)ccc3c2-c2cc3ccc(C4=NCCN4)cc3[nH]2)ccc1C1=NCCN1
survivor count (dose: 50.0 mg/kg/injection, schedule: Q01DX005 (ip), vehicle: Klucel (hydroxypropylcellulose) (HPC)): 0 of 5 | survivor count (dose: 100.0 mg/kg/injection, schedule: Q01DX005 (ip), vehicle: Klucel (hydroxypropylcellulose) (HPC)): 1 of 5 | survivor count [3]: 0 of 5

CCC[CH2][Sn]1([CH2]CCC)[O]CC[S]1
T/C (dose: 3.12 mg/kg/injection, schedule: Q01DX009 (ip), vehicle: Klucel (hydroxypropylcellulose) (HPC)): 129 % of control | T/C [4]: 106 and 114 % of control | survivor count [4]: 0 of 6, 2 of 6, 4 of 6, 6 of 6 | T/C [5]: 109 % of control [5 of 6 alive] | survivor count [5]: 0 of 6, 4 of 6, 5 of 6, 6 of 6 | T/C [6]: 132 % of control | survivor count [6]: 0 of 6 | survivor count (dose: 50.0 mg/kg/injection, schedule: Q01DX009 (ip), vehicle: Klucel (hydroxypropylcellulose) (HPC)): 0 of 6

C[N+]1(CC(=O)O)C2CCC1CC(O)C2 (stereo not given)
T/C [7]: 138 % of control

CC(c1ccccc1)C1(C)NC(=O)NC1=O (stereo not given)
survivor count [1]: 1 of 6

COc1nc(C(Br)Br)c([N+](=O)[O-])c(N2CCOCC2)n1
survivor count [3]: 4 of 6

c1ccc2c(NCCCN3CCN(CCCNc4c5ccccc5nc5ccccc45)CC3)c3ccccc3nc2c1
T/C (dose: 3.75 mg/kg/injection, schedule: Q01DX005 (ip), vehicle: Klucel (hydroxypropylcellulose) (HPC)): 130 % of control | T/C (dose: 7.5 mg/kg/injection, schedule: Q01DX005 (ip), vehicle: Klucel (hydroxypropylcellulose) (HPC)): 127 and 130 % of control | survivor count (dose: 15.0 mg/kg/injection, schedule: Q01DX005 (ip), vehicle: Klucel (hydroxypropylcellulose) (HPC)): 5 of 6 | survivor count (dose: 30.0 mg/kg/injection, schedule: Q01DX005 (ip), vehicle: Klucel (hydroxypropylcellulose) (HPC)): 5 of 6 | survivor count (dose: 60.0 mg/kg/injection, schedule: Q01DX005 (ip), vehicle: Klucel (hydroxypropylcellulose) (HPC)): 3 of 6 | survivor count (dose: 120.0 mg/kg/injection, schedule: Q01DX005 (ip), vehicle: Klucel (hydroxypropylcellulose) (HPC)): 0 of 6 | survivor count (dose: 240.0 mg/kg/injection, schedule: Q01DX005 (ip), vehicle: Klucel (hydroxypropylcellulose) (HPC)): 0 of 6

O=C1C=CC(=O)N1c1ccc(N2C(=O)C=CC2=O)cc1
survivor count (dose: 12.5 mg/kg/injection, schedule: Q01DX009 (ip), vehicle: distilled water + Tween-80): 3 of 6 | survivor count (dose: 25.0 mg/kg/injection, schedule: Q01DX009 (ip), vehicle: distilled water + Tween-80): 0 of 6 and 2 of 6

COC1=C(N)C(=O)c2cccnc2C1=O
survivor count (dose: 50.0 mg/kg/injection, schedule: Q01DX009 (ip), vehicle: DMSO): 1 of 4

O=[N+]([O-])c1ccc2[nH]c3cnccc3c2c1
survivor count (dose: 200.0 mg/kg/injection, schedule: Q01DX009 (ip), vehicle: other): 5 of 6

CCC1OCCN1C(C)C (stereo not given)
survivor count [1]: 3 of 6

C/C1=C2N=C(/C=C3N=C(/C(C)=C4\[N-]C(C(CC(N)=O)C4(C)CCC(=O)NCC(C)OP(=O)(O)OC4C(CO)OC(n5cnc6cc(C)c(C)cc65)C4O)C4(C)N=C1C(CCC(N)=O)C4(C)CC(N)=O)C(CCC(N)=O)C\3(C)C)C(CCC(N)=O)C/2(C)CC(N)=O.[CH2-]CC.[Co+2] (stereo not given)
survivor count (dose: 7.6 micrograms/kg/injection, schedule: Q#A X Z (ip), vehicle: water): 10 of 10 | survivor count (dose: 761.0 micrograms/kg/injection, schedule: Q#A X Z (ip), vehicle: water): 10 of 10

CCCCCc1cc(/C=C2/N=C(c3ccc[nH]3)C=C2OC)[nH]c1C
T/C (dose: 6.0 mg/kg/injection, schedule: Q01DX009 (ip), vehicle: saline): 125 % of control | survivor count (dose: 12.0 mg/kg/injection, schedule: Q01DX009 (ip), vehicle: saline): 6 of 6 | survivor count (dose: 24.0 mg/kg/injection, schedule: Q01DX009 (ip), vehicle: saline): 2 of 6

CC1(C)C(C=O)=CCC1CC(N)=O (stereo not given)
survivor count [8]: 2 of 6

O=S(=O)(c1ccccc1)C(SC(=S)Sc1ccccc1)Sc1ccccc1 (stereo not given)
survivor count (dose: 100.0 mg/kg/injection, schedule: Q01DX009 (ip), vehicle: saline with Tween-80): 0 of 6 | survivor count [2]: 0 of 6

O=P(O)(O)c1ccccc1P(=O)(O)O
survivor count (dose: 240.0 mg/kg/injection, schedule: Q01DX005 (ip), vehicle: saline): 0 of 6

Cc1cc2nc(CC(=O)c3ccccc3)c(CC(=O)c3ccccc3)nc2cc1C
survivor count (dose: 30.0 mg/kg/injection, schedule: Q01DX005 (ip), vehicle: saline with Tween-80): 6 of 6 | survivor count (dose: 60.0 mg/kg/injection, schedule: Q01DX005 (ip), vehicle: saline with Tween-80): 6 of 6 | survivor count (dose: 120.0 mg/kg/injection, schedule: Q01DX005 (ip), vehicle: saline with Tween-80): 6 of 6 | survivor count [8]: 4 of 6

Cc1cc(OCC(=O)N/N=C/c2ccc(N(CCCl)CCCl)cc2)c2ccc(Cl)cc2n1
survivor count [7]: 6 of 6

CCCN=c1c2c(OC)c(OC)ccc2cc2n1CCc1cc3c(cc1-2)OCO3
survivor count (dose: 20.0 mg/kg/injection, schedule: Q01DX009 (ip), vehicle: water): 0 of 6

CCCN=Cc1cc(Cc2ccc(O)c(C=NCCC)c2)ccc1O
T/C [9]: 126 % of control | survivor count [9]: 2 of 6 | survivor count (dose: 400.0 mg/kg/injection, schedule: Q04DX003 (ip), vehicle: Klucel (hydroxypropylcellulose) (HPC)): 1 of 6

CC(=O)c1c(OCC(O)CNC(C)C)ccc2c(C)cc(=O)oc12 (stereo not given)
survivor count (dose: 200.0 mg/kg/injection, schedule: Q01DX005 (ip), vehicle: saline with Tween-80): 0 of 6

CN(C(=O)c1ccc(N)cc1)C1CCN(C2CCCCC2)C1 (stereo not given)
survivor count (dose: 200.0 mg/kg/injection, schedule: Q01DX009 (ip), vehicle: Klucel (hydroxypropylcellulose) (HPC)): 1 of 6
